Assay results from the supplement of paper PMC12067093, “Discovery and optimisation of a covalent ligand for TRIM25 and its application to targeted protein ubiquitination” (Chemical Science, 2025).
The list shows a part of the results.

Sequences of proteins named here, by UniProt entry; tags and fusion partners are left off. A change or cut given only in a name is not applied to a line headed by its entry.
UniProt Q9UK45: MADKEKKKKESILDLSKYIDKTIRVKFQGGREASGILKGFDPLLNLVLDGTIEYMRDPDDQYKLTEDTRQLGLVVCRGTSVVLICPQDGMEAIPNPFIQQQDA
UniProt P48059, whole entry, looked up: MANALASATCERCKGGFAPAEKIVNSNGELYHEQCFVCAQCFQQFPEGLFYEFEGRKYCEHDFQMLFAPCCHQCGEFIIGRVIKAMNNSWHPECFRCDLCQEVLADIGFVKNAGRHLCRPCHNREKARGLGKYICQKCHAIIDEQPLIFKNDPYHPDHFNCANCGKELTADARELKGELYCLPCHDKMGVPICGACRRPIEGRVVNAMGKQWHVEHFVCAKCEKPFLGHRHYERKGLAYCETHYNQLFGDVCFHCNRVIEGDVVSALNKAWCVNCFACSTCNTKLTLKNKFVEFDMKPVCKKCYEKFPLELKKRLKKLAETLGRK
UniProt P49916: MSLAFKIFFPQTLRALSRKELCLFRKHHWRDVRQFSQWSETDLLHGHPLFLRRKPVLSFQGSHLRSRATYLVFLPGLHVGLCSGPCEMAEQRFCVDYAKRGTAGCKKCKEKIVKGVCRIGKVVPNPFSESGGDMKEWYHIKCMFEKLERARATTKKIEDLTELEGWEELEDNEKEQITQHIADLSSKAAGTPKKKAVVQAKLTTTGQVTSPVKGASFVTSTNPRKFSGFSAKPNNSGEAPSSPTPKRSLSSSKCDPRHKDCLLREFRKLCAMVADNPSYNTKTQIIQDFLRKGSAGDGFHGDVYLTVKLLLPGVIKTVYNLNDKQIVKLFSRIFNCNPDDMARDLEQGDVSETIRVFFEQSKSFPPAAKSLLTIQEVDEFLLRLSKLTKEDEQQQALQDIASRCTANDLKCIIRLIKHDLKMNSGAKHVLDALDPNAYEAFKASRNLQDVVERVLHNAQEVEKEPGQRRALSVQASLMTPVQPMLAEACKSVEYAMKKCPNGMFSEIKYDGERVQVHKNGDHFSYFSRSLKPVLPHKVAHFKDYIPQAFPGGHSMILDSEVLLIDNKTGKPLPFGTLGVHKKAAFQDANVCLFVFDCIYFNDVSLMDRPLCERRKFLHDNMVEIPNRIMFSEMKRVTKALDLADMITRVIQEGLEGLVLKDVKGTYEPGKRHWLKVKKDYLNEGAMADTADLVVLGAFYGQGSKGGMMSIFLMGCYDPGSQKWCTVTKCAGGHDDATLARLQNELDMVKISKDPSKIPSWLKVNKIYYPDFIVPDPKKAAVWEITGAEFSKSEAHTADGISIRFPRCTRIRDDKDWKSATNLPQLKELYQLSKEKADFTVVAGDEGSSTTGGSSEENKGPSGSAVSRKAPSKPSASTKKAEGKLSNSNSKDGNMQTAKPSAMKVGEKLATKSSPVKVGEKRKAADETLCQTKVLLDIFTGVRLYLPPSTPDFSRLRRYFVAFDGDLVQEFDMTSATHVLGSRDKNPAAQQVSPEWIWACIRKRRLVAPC
UniProt Q96CX6, whole entry, looked up: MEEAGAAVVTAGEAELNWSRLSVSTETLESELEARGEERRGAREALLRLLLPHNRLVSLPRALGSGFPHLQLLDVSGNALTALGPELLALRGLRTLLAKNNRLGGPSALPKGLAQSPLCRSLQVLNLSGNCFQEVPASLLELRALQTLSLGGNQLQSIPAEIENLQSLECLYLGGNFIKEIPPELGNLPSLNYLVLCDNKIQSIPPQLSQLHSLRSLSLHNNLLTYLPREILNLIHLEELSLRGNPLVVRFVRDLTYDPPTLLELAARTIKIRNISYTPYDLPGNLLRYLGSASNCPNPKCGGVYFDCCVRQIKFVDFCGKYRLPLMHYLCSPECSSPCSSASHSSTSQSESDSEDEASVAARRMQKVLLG
UniProt Q8NHJ6, whole entry, looked up: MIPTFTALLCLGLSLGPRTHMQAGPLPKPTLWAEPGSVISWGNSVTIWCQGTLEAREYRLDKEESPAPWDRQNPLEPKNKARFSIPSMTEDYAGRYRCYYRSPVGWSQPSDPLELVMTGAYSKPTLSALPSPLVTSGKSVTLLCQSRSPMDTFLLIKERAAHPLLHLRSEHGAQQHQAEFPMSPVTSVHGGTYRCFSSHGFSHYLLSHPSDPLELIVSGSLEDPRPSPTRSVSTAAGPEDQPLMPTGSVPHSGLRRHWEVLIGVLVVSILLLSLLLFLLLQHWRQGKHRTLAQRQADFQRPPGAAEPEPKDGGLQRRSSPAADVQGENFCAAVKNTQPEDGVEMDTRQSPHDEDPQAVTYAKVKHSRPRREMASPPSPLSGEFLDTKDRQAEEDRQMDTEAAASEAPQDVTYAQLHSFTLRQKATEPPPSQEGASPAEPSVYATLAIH
UniProt Q96AG4: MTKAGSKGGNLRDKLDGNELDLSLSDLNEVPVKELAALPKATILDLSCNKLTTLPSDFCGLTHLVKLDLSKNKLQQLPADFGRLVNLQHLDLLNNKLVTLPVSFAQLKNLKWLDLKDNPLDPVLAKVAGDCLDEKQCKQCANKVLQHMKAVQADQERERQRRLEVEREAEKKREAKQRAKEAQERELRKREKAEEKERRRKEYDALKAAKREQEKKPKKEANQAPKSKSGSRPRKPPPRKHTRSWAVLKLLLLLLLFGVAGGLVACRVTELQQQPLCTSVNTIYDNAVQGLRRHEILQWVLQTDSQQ
UniProt P09382, whole entry, looked up: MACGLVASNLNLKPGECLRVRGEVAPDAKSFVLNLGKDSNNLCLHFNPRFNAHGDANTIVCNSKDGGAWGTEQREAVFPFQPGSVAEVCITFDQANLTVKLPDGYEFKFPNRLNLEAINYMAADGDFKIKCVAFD
UniProt Q96II8: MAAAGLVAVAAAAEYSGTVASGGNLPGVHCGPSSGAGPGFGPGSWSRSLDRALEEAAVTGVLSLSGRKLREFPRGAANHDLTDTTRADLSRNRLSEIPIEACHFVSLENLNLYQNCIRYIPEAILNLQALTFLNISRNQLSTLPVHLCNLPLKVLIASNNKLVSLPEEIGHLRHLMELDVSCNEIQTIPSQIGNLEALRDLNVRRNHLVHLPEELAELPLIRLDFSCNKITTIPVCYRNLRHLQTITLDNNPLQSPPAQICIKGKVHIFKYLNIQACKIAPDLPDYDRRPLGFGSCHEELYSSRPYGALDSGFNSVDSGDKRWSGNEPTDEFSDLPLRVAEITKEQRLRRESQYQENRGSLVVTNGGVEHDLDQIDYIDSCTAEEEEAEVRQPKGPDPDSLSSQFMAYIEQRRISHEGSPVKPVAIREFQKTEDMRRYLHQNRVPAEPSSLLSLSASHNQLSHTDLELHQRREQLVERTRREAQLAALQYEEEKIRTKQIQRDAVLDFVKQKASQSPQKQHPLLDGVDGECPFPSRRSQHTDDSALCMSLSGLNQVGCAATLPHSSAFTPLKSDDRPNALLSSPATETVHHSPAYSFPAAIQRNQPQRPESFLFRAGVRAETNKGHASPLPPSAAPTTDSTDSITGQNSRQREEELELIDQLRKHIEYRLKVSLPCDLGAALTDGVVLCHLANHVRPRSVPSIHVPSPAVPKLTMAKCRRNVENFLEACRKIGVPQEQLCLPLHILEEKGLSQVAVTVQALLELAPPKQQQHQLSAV
UniProt Q8ND56: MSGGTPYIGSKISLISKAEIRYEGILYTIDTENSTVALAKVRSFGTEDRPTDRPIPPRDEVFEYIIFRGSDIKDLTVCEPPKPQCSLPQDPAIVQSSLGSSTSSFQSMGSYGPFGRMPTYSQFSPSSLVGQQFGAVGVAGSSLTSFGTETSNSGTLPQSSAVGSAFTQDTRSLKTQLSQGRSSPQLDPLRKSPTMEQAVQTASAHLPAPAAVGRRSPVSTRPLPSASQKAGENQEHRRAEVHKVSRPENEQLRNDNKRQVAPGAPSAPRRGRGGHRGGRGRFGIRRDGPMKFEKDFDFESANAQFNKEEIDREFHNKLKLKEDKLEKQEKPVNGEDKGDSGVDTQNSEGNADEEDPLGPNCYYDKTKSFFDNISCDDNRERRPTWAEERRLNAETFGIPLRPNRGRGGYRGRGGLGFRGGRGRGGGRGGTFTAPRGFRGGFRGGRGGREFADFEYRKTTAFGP
UniProt P36776: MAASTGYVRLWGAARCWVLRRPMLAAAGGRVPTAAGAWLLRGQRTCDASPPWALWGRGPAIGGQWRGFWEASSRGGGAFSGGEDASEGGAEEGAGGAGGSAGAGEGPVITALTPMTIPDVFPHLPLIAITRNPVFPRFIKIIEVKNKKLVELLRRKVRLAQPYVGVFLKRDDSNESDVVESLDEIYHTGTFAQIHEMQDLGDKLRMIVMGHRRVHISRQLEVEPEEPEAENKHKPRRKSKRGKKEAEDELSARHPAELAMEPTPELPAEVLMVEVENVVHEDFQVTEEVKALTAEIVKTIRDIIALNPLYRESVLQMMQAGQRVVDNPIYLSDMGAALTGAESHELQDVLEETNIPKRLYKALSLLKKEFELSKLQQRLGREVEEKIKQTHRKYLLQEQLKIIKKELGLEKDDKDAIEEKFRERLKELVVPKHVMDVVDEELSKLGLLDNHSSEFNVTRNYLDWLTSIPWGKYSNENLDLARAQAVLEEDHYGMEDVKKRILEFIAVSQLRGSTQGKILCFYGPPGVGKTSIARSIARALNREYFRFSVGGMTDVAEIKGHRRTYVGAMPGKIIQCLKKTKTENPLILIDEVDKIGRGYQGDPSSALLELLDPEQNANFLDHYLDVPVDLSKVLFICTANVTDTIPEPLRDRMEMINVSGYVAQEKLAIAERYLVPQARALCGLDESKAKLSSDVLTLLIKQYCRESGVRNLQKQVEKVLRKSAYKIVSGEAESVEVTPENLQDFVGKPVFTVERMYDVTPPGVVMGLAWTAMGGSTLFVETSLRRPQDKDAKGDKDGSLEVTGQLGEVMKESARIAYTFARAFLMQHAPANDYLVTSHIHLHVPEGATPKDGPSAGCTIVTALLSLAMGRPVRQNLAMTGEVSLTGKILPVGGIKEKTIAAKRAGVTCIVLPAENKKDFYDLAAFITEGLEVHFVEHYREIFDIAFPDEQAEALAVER
UniProt P09960: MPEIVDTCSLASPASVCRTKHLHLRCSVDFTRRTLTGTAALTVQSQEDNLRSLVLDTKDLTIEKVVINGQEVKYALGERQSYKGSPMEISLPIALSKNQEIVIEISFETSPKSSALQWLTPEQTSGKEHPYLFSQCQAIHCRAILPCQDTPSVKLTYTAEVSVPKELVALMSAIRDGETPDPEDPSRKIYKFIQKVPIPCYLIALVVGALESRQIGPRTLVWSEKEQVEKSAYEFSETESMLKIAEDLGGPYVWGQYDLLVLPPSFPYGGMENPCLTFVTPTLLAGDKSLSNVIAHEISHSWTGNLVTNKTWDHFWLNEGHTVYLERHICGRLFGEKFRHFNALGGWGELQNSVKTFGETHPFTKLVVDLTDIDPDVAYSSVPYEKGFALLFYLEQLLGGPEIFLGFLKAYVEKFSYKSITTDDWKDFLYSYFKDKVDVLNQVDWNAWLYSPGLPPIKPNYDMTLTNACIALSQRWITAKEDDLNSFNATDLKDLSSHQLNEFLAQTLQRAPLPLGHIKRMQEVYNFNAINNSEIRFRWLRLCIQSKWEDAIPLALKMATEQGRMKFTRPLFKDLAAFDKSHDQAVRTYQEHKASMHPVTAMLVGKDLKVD
UniProt Q9Y4Z0: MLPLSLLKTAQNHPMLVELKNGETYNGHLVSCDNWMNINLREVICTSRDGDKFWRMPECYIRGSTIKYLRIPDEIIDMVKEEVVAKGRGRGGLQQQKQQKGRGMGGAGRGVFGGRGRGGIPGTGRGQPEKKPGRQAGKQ
UniProt Q93052: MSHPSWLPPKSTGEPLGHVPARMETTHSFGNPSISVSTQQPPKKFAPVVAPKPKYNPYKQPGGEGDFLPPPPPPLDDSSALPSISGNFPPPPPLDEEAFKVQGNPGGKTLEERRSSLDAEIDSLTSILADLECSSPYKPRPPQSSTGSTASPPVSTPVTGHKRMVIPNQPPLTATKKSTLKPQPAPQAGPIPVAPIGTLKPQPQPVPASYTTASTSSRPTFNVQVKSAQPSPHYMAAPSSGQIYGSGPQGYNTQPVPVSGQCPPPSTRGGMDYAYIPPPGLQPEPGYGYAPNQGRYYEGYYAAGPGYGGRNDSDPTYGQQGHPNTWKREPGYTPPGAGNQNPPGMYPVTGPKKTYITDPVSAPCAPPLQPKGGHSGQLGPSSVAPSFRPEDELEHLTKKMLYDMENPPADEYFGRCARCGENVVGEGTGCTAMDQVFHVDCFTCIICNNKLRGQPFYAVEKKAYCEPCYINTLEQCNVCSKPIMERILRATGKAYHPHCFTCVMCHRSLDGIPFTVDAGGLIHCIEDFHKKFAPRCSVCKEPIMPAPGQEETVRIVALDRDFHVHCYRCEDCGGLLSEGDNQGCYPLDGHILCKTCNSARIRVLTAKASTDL
UniProt Q9Y333: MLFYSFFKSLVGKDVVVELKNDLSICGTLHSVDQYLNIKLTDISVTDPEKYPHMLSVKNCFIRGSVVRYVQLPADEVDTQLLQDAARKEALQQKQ

Compound: Cc1cc(ccc1-c1ccccc1)C(=O)N1CCCN(CC1)C(=O)CCl [compound 10]
Test: probe-labelled cysteine peptide fold change vs DMSO (competition) (log2 fold change); higher = less target engagement (more negative = stronger competition)
Settings: THP-1, incubation time: 4 h
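Also: competitive profiling in live THP-1 cells: cysteine peptides tagged with an iodoacetamide desthiobiotin (IA-DTB) probe, intensity after compound treatment relative to DMSO-treated cells.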

Target	probe-labelled cysteine peptide fold change (10 µM)	probe-labelled cysteine peptide fold change (50 µM)
LSM7_Q9UK45_85_GTSVVLICPQDGMEAIPNPFIQQQDA (UniProt Q9UK45)	0.204	-0.291
LSM12_Q3MHD2_43_CPSSSGKPNHADILLINLQYVSEVEIINDRTETPPPLASLNVSK (UniProt Q3MHD2)	0.046	0.0881
LIMS1_P48059_300_FVEFDMKPVCK (UniProt P48059)	-0.109	-0.372
LIG3_P49916_499_KCPNGMFSEIKYDGER (UniProt P49916)	0.318	0.638
LRRFIP1_Q32MZ4_726_SEDADRCTLPEHESPSQDISDACEAESTER (UniProt Q32MZ4)	-0.0306	-0.346
LIMA1_Q9UHB6_414_LLANQQVFHISCFR (UniProt Q9UHB6)	0.102	0.0802
LRRC58_Q96CX6_197_EIPPELGNLPSLNYLVLCDNK (UniProt Q96CX6)	-0.0304	-0.439
LIG3_P49916_499_CPNGMFSEIKYDGER (UniProt P49916)	0.39	0.664
LRRFIP1_Q32MZ4_334_DCVDIEVFPAGENTEDQK (UniProt Q32MZ4)	-0.00127	-0.00403
LILRB4_Q8NHJ6_330_SSPAADVQGENFCAAVK (UniProt Q8NHJ6)	-0.385	-0.214
LGALS9_O00182_259_FHINLCSGNHIAFHLNPR (UniProt O00182)	-0.14	-0.00102
LRRC47_Q8N1G4_450_YLHLLDGNENYPCLVDADGDVISFPPITNSEK (UniProt Q8N1G4)	-0.235	-0.182
LRPPRC_P42704_413_EVQMHSFPLQFTLHCALLANK (UniProt P42704)	-0.0822	0.0124
LRRC59_Q96AG4_131_VAGDCLDEK (UniProt Q96AG4)	0.0645	-0.227
LGALS1_P09382_61_FNAHGDANTIVCNSK (UniProt P09382)	-0.0995	-0.0373
LRPPRC_P42704_1043_DILIACR (UniProt P42704)	0.136	-0.0185
LPXN_O60711_237_VLTAMNQTWHPEHFFCSHCGEVFGAEGFHEK (UniProt O60711)	0.0787	0.198
LIG3_P49916_929_AADETLCQTK (UniProt P49916)	-0.0862	-0.203
LRRFIP1_Q32MZ4_456_CMVEVPQELETSTGHSLEK (UniProt Q32MZ4)	-0.167	-0.23

Target	probe-labelled cysteine peptide fold change (10 µM)	probe-labelled cysteine peptide fold change (50 µM)
LRSAM1_Q6UWE0_193+205_EVCGAGTAAILQFLCK (UniProt Q6UWE0)	0.19	0.231
LRMP_Q12912_355_SFNPLEDDDDCQIK (UniProt Q12912)	-0.278	-0.0639
LRCH3_Q96II8_182_HLMELDVSCNEIQTIPSQIGNLEALR (UniProt Q96II8)	-0.231	-0.12
LSM14A_Q8ND56_375_SFFDNISCDDNR (UniProt Q8ND56)	-0.548	0.261
LPCAT1_Q8NF37_330_LPADTCLLEFAR (UniProt Q8NF37)	0.0312	-0.0673
LONP1_P36776_909_RAGVTCIVLPAENK (UniProt P36776)	0.341	0.602
LTA4H_P09960_8_PEIVDTCSLASPASVCR (UniProt P09960)	-0.129	-0.324
LGALS1_P09382_61_FNAHGDANTIVCNSKDGGAWGTEQR (UniProt P09382)	-0.0368	-0.451
LSM4_Q9Y4Z0_45_EVICTSR (UniProt Q9Y4Z0)	-0.0884	-0.2
LPP_Q93052_566_DFHVHCYR (UniProt Q93052)	0.0696	0.0526
LIMS1_P48059_10_ANALASATCER (UniProt P48059)	-0.159	0.0274
LIMS1_P48059_252_GLAYCETHYNQLFGDVCFHCNR (UniProt P48059)	0.152	0.299
LSM2_Q9Y333_26_NDLSICGTLHSVDQYLNIK (UniProt Q9Y333)	0.109	0.253
LIMS1_P48059_193+196_MGVPICGACR (UniProt P48059)	0.00512	-0.193
LTN1_O94822_869_THLPDFLICK (UniProt O94822)	0.0989	0.0937
LRRC59_Q96AG4_59_LTTLPSDFCGLTHLVK (UniProt Q96AG4)	0.0847	0.0224
LIMD1_Q9UGP4_630_DYHVECYHCEDCGLELNDEDGHR (UniProt Q9UGP4)	-0.0648	0.0219
LRRC8C_Q8TDW0_728_VESLPDELYFCK (UniProt Q8TDW0)	-0.0868	0.479
